Measurements published in PubChem BioAssay AID624297 (National Center for Advancing Translational Sciences (NCATS), 2012).
The campaign covered roughly 340,000 compounds. About 6,200 (1.8%) were called active. Inconclusive results, whose numbers are uncertain, are shown with a selection of clear calls. The call rests on the fitted dose curve; in most records, active means well fitted activation curve with a large enough effect; inconclusive means small, poorly fitted or top-dose-only effect; inactive means no such curve, though single readings can be large or run the other way. Where the call is inconclusive, the potency comes from a doubtful curve fit.
Potency means the concentration at half of the fitted maximal effect.

Test: A quantitative high throughput screen for small molecules that induce DNA re-replication in SW480 colon adenocarcinoma cells. Further: nearly all actives have a fitted effect of over 55% in size.
Conditions: Hoechst DNA content imaging, 48 h; series mostly up to 46.1 µM
How it was run: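 Treated cells incubate 48 hr (37 C, 5% CO2), are stained 40 min with Hoechst, and nuclear fluorescence is enumerated; a rise in nuclei with high DNA signal marks re-replication.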
For CCn1c(N2CCN(CC(=O)c3c(C)n(C)c4ccccc34)CC2)nc2c1c(=O)[nH]c(=O)n2C, the Potency was inconclusive: 0.0041 µM [activator, full curve, poor fit]. In the case of Cc1c(C(=O)NC2CCN(Cc3ccccc3)C2)oc2ccc(Br)cc12 (stereo not drawn), the Potency is reported as inconclusive: 29.1 µM [activator, single point]. With COC(=O)N/N=C/C1=CCC2CC1C2(C)C (stereo not drawn) the Potency was “inactive”. With C=CCn1c(SCC(=O)c2cc(C)n(C(C)COC)c2C)nc2sc(C)c(C)c2c1=O (stereo not drawn) the Potency was inconclusive: 29.1 µM [activator, single point]. For CC(C)c1ccc(OCC(=O)NC(=S)Nc2ccc3c4c(cccc24)CC3)cc1, the Potency was inconclusive: 18.4 µM [activator, single point]. With COc1ccccc1N(CC(=O)N1CCOCC1)S(C)(=O)=O the Potency was inconclusive: 29.1 µM [activator, single point]. In the case of Nc1nc(-c2cccnc2)nn1C(=O)c1ccccc1Cl, the Potency is reported as inconclusive: 29.1 µM [activator, partial curve, poor fit]. In the case of Cc1ccc(S(=O)(=O)N2CCCC2)cc1C(=O)N1CCC(C)CC1, the Potency is reported as “inactive”. For CC[C@]12C(=O)N(C)C[C@H]([C@@H]3C(=O)N(C)C(=O)[C@@H]31)N2C(=O)c1ccc(C)cc1, the Potency was inconclusive: 29.1 µM [activator, single point]. With Cc1ccc2nc(-c3cccnc3)c(NC3CCCCC3)n2c1 the Potency was “inactive”. In the case of CCCOc1c(OC)cccc1C1CC(=O)Nc2cc3c(cc21)OCCO3 (stereo not drawn), the Potency is reported as inconclusive: 29.1 µM [activator, single point]. With CCO[C@H]1OC(C(=O)NCc2nc3ccccc3[nH]2)=C[C@@H](c2ccc(C(F)(F)F)cc2)[C@@H]1CCCO the Potency was inconclusive: 23.1 µM [activator, partial curve, poor fit]. In the case of CN(C)CCC(=O)c1ccc(F)cc1, the Potency is reported as inconclusive: 16.4 µM [activator, single point]. For CC(OC(=O)c1cc2sccc2n1C)C(=O)NCc1ccc(F)cc1 (stereo not drawn), the Potency was “inactive”. For CC[N+]1(CC)CC2CCC(C)(C1)C2(C)C (stereo not drawn), the Potency was inconclusive: 29.1 µM [activator, single point]. With Cc1cc(C)c(OCC(=O)N/N=C/c2ccc3c(c2)OCO3)c(C)c1 the Potency was inconclusive: 20.6 µM [activator, single point]. In the case of CC1(C)CC(=O)C2=C(C1)N(c1ccc(F)cc1)C(N)=C(C#N)C2c1cccs1 (stereo not drawn), the Potency is reported as inconclusive: 18.4 µM [activator, partial curve, poor fit]. For Cc1ccc(OCc2cc(C(=O)N3CCN(c4ccccc4)CC3)no2)cc1C, the Potency was inconclusive: 29.1 µM [activator, partial curve, poor fit].
